According to article PMC8897952:
These are yes or no findings as the source states them, for the method shown. In cells and extracts the contact can be indirect. Some binding calls cover weakened binding; strength is not graded here.

Protein sequences, listed by entry. Tags and fused reporters are not part of them.
UniProt P41229: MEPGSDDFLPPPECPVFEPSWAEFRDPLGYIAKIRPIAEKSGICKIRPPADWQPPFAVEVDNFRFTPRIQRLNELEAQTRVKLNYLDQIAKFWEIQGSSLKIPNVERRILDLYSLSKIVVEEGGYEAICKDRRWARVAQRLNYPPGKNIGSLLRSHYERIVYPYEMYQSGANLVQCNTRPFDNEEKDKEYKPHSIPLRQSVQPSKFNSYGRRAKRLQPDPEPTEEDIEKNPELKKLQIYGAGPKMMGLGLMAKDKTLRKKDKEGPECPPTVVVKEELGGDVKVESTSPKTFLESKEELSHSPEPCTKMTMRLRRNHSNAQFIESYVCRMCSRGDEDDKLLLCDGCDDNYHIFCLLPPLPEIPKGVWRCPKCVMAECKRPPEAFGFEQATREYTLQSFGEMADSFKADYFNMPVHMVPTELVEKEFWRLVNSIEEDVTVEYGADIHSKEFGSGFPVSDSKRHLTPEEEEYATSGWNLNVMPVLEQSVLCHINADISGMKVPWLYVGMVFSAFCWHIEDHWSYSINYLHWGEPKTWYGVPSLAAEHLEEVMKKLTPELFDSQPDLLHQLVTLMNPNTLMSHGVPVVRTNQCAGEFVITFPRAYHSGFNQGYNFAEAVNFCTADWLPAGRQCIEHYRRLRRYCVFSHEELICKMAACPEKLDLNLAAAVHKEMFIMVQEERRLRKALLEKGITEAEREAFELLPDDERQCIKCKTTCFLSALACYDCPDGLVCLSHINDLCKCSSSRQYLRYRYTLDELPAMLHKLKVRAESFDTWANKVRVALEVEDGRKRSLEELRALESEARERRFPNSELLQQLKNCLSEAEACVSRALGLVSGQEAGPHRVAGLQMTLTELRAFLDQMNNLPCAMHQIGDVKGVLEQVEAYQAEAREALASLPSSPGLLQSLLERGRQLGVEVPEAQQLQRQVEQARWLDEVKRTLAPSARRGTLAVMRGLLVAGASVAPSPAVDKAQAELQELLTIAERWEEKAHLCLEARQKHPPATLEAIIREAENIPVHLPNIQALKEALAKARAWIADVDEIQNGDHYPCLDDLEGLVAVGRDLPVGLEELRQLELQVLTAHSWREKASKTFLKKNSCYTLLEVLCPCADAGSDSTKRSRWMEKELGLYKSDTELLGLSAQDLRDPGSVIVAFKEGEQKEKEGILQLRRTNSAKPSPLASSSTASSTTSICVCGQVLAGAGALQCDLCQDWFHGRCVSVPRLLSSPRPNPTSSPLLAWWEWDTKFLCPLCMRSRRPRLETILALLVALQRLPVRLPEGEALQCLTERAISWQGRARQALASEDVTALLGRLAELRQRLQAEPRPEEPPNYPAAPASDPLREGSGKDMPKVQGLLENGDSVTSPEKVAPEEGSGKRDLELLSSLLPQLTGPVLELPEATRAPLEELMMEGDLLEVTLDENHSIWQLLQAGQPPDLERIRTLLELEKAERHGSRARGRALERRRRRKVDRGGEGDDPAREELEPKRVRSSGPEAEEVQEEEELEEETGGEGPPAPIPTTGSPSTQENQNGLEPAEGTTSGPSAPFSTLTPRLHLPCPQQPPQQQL
UniProt O75461: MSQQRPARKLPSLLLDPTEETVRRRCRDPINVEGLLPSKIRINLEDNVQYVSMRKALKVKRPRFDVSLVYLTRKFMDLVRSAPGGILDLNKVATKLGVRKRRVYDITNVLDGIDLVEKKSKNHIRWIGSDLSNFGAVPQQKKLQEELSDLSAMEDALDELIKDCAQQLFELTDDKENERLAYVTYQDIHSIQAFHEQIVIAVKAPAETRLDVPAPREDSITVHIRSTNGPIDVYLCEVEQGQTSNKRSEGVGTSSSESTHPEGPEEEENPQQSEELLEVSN

Target: Lysine-specific demethylase 5C (KDM5C) (UniProt P41229)
Test: co-IP; cell lysates after KDM5C overexpression, precipitated overnight at 4 °C with the indicated antibody and protein A-agarose, washed five times with immunoprecipitation-HAT buffer, Western blot

Transcription factor E2F6 (from UniProt O75461 1-281)
binding: binds
